Test results published in patent US9944654B2, “Nargenicin compounds and uses thereof as antibacterial agents” (priority 2014, dated 2018).
For part of these data: The name of at least one read-out is uncertain. For part of these data: At least one compound was matched to its structure with a doubt left. Some compounds share one wording; it may come from a single statement.

Each compound was assayed on Drug susceptible M. tuberculosis clinical isolates (assay: not given). Conditions: M. tuberculosis clinical isolates (MTB panel).
Assay type: cell-based, Mycobacterium tuberculosis

| SMILES | MICs compared with nargenicin |
| --- | --- |
| CO[C@H]1CC2C=C[C@H]3[C@H]4O[C@]2(/C(C)=C/[C@@H](C)[C@@H]([C@@H](C)OC(=O)c2ccccc2C[n+]2ccccc2)OC1=O)[C@@H]3[C@H](O)[C@@H](C)[C@H]4OC(=O)c1ccc[nH]1 (stereo partly drawn) [Example 108] | equal to or better than nargenicin |
| CO[C@H]1CC2C=C[C@H]3[C@H]4O[C@]2(/C(C)=C/[C@@H](C)[C@@H]([C@@H](C)OC(=O)c2ccccc2C[n+]2ccn(C)c2)OC1=O)[C@@H]3[C@H](O)[C@@H](C)[C@H]4OC(=O)c1ccc[nH]1 (stereo partly drawn) [Example 109] | equal to or better than nargenicin |
| CO[C@H]1CC2C=C[C@H]3[C@H]4O[C@]2(/C(C)=C/[C@@H](C)[C@@H]([C@@H](C)OC(=O)c2ccc(C[n+]5ccccc5)cc2)OC1=O)[C@@H]3[C@H](O)[C@@H](C)[C@H]4OC(=O)c1ccc[nH]1 (stereo partly drawn) [Example 90] | equal to or better than nargenicin |
| CO[C@H]1CC2C=C[C@H]3[C@H]4O[C@]2(/C(C)=C/[C@@H](C)[C@@H]([C@@H](C)OC(=O)c2ccc(C[n+]5ccn(C)c5)cc2)OC1=O)[C@@H]3[C@H](O)[C@@H](C)[C@H]4OC(=O)c1ccc[nH]1 (stereo partly drawn) [Example 94] | equal to or better than nargenicin |
| CO[C@H]1C[C@H]2C=C[C@H]3[C@H]4O[C@]2(/C(C)=C/[C@@H](C)[C@@H]([C@@H](C)OC(=O)CCC[N+]25CCN(CC2)CC5)OC1=O)[C@@H]3[C@H](O)[C@@H](C)[C@H]4OC(=O)c1ccc[nH]1 [Example 100] | equal to or better than nargenicin |

The compounds below were run on Staphylococcus aureus MB6266 (MRSA COL) (assay: Nargenicin antibacterial assay (MIC), S. aureus). Conditions: MHII broth + 50% human serum; * = some reduction of growth versus control at […].
Assay type: cell-based

| SMILES | S. aureus COL (MIC) [µg/mL] |
| --- | --- |
| CC[C@H]1OC(=O)[C@@H](OC)C[C@H]2C=C[C@H]3[C@H]4O[C@]2(/C(C)=C/[C@H]1C)[C@@H]3[C@H](O)[C@@H](C)[C@H]4OC(=O)c1ccc[nH]1 [Example 159] | 4 |
